Results published in the supplement of paper PMC12819154, “High-throughput peptide-centric local stability assay extends protein–ligand identification to membrane proteins, tissues and bacteria” (Nature Structural & Molecular Biology, 2025).
The list shows a part of the results. Most values lie at the level of the controls, where differences are scatter.

Amino acid sequences for entries named in this document (tags omitted). A change or cut given only in a name is not applied to a line headed by its entry.
UniProt Q925I1: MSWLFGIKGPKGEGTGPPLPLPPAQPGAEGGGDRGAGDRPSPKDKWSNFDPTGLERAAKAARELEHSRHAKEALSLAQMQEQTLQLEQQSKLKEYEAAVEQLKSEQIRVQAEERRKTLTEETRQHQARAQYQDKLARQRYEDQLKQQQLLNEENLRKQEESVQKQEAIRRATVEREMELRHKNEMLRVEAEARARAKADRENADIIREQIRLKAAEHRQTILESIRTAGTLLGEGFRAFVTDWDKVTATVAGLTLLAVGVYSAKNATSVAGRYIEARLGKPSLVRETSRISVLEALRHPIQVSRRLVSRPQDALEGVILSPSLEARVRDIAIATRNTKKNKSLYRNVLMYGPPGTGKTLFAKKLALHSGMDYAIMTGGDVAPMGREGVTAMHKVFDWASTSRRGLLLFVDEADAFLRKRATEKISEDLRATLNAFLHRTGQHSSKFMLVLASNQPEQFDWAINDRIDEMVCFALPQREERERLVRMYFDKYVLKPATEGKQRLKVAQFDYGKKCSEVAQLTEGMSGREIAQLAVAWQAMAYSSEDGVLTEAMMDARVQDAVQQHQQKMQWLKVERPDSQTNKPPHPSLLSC
UniProt Q925N0: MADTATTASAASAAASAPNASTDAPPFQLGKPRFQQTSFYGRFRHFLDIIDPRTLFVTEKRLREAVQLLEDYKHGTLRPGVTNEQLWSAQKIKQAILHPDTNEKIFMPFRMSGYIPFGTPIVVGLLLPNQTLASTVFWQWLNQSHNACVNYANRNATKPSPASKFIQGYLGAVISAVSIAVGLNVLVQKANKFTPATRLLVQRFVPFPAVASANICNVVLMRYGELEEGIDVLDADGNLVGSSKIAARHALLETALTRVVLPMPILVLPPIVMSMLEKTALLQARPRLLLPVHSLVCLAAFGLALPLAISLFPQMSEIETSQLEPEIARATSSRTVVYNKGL
UniProt Q8VDI9: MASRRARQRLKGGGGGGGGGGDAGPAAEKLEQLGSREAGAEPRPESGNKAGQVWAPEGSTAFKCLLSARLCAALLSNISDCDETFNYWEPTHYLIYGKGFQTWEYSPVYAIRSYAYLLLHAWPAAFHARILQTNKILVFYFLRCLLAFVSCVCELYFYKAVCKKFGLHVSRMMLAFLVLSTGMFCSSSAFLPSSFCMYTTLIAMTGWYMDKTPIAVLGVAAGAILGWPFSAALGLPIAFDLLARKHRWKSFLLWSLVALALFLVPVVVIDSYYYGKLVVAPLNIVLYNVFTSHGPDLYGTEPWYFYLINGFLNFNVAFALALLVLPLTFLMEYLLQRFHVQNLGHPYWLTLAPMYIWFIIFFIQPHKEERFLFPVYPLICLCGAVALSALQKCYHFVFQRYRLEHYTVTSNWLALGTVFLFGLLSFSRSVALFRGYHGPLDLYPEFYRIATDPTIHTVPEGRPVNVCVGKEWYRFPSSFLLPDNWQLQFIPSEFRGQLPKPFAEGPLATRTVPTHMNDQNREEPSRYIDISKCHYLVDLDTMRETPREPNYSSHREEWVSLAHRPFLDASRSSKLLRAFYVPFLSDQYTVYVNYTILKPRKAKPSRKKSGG
UniProt Q91WS0: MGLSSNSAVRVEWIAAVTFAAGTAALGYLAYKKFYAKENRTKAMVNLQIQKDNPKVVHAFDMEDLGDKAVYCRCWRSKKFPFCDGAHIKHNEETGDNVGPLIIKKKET
UniProt Q924T2, whole entry: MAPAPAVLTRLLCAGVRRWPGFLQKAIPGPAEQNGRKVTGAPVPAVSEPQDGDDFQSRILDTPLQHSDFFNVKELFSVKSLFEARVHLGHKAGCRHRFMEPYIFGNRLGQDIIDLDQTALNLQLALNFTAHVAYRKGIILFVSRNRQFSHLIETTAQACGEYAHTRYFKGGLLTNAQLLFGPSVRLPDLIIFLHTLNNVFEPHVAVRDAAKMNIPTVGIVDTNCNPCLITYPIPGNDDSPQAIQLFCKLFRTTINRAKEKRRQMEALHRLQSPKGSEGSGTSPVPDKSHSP
UniProt Q91V12: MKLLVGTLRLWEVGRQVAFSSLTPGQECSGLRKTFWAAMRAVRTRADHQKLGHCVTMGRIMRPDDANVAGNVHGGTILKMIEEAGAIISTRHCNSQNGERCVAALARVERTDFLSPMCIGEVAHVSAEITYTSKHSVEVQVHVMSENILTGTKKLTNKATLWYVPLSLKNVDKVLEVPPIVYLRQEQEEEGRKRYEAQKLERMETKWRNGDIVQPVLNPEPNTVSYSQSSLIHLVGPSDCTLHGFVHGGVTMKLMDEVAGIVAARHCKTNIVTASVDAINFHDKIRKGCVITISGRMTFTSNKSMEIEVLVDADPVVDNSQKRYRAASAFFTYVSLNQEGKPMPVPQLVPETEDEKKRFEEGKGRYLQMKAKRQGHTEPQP
UniProt Q99J47: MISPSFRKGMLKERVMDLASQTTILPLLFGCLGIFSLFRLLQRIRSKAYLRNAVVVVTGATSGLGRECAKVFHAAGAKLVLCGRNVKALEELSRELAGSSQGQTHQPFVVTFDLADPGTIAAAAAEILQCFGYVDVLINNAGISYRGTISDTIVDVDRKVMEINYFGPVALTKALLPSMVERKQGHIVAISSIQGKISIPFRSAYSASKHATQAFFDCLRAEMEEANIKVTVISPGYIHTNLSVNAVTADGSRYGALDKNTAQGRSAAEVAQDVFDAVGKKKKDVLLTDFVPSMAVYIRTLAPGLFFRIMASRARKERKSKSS
UniProt Q920A5: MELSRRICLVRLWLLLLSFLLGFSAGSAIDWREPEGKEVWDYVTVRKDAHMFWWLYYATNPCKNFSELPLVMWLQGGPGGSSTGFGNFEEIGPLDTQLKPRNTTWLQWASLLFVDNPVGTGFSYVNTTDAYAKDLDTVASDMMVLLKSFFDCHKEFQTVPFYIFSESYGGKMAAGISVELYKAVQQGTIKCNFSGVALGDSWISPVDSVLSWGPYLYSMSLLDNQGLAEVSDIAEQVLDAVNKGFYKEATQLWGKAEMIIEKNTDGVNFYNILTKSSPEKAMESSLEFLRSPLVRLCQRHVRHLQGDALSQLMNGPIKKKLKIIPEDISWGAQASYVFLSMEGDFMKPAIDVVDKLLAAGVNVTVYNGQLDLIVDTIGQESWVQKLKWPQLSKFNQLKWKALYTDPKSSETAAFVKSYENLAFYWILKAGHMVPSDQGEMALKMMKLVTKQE
UniProt Q923B1: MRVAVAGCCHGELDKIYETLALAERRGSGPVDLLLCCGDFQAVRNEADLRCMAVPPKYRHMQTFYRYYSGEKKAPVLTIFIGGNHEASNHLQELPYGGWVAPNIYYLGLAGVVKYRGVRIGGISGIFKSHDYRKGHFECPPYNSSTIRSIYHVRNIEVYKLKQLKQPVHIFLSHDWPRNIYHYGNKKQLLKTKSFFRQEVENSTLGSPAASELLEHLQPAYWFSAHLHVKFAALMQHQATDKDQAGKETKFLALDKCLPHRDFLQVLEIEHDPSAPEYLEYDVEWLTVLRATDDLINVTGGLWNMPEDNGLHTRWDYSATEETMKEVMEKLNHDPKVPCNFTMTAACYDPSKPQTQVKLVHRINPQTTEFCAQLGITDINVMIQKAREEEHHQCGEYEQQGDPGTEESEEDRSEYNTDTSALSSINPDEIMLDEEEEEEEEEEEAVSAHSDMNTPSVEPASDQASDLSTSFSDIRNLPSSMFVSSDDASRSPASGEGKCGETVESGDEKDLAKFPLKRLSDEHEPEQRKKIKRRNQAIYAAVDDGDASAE
UniProt Q91WJ8: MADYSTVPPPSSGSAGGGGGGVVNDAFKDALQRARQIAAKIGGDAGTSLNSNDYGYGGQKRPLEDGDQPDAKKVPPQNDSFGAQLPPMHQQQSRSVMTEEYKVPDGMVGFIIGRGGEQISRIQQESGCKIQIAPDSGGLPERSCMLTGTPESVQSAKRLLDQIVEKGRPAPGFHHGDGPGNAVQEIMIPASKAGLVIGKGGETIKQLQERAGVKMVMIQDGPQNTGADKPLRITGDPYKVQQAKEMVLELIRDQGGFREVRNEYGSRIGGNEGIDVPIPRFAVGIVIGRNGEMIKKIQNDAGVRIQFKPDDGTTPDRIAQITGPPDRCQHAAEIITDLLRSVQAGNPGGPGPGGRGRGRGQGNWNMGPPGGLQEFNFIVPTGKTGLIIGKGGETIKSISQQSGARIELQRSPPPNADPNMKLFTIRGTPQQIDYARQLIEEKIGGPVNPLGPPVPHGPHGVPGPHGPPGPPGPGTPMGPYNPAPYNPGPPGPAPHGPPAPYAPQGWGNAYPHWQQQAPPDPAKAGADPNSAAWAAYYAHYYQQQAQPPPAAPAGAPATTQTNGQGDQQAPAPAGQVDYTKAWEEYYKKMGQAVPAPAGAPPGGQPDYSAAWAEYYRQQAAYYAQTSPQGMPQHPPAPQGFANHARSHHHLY
UniProt Q91VW5: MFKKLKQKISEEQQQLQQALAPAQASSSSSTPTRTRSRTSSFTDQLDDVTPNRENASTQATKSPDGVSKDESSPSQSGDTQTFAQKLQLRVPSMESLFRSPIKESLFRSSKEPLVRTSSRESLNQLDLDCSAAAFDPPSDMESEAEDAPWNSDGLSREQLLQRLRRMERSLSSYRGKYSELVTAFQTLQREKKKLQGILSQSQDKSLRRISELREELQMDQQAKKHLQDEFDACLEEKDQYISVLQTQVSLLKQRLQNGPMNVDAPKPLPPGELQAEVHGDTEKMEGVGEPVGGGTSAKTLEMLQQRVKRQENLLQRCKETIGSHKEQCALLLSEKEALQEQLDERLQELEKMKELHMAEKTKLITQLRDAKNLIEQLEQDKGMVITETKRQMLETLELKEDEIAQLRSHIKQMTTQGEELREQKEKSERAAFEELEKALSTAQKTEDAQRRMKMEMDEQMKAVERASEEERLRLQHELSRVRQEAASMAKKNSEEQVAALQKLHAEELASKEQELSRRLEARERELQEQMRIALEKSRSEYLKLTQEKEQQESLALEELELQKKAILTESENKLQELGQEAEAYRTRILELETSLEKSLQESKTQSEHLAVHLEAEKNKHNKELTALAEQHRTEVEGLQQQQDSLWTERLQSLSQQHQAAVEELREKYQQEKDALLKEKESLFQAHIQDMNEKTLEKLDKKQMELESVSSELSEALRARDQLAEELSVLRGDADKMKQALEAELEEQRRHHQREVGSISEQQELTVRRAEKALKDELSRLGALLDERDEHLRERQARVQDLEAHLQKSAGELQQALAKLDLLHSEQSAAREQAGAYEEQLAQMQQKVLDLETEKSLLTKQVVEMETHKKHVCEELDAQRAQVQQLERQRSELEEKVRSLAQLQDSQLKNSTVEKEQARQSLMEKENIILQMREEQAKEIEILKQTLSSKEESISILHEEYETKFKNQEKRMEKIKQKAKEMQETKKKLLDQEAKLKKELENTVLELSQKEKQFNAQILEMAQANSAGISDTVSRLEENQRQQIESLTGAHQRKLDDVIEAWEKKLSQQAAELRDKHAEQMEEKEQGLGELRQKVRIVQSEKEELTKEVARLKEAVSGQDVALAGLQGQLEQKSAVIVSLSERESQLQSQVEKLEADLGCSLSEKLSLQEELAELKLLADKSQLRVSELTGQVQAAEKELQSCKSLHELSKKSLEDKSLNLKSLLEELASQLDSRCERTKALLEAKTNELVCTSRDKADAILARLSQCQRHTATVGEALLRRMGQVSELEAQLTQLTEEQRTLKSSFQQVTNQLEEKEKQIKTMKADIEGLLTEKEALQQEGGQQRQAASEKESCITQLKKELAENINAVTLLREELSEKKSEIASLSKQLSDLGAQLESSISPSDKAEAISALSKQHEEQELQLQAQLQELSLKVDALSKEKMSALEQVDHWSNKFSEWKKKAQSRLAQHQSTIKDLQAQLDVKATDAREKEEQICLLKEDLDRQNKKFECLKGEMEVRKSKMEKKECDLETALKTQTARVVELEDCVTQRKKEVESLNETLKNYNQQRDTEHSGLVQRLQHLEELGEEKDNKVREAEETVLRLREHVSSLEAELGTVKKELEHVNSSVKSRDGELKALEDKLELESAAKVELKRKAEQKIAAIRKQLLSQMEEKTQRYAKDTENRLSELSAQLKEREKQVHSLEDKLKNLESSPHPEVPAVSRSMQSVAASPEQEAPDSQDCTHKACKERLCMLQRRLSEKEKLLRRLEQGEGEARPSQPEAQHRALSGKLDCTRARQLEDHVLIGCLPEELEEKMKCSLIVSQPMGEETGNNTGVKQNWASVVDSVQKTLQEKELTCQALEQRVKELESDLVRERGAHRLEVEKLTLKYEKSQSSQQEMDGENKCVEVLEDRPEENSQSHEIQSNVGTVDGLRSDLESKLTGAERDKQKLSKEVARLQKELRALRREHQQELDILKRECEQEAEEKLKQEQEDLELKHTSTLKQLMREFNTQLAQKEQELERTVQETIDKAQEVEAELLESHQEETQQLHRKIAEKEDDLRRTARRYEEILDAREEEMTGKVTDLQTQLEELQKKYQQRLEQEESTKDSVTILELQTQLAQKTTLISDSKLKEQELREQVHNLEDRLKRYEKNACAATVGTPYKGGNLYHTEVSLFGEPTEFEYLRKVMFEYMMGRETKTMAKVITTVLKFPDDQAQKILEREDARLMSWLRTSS

Compound: CN[C@@H]1C[C@H]2O[C@@](C)([C@@H]1OC)n1c3ccccc3c3c4c(c5c6ccccc6n2c5c31)C(=O)NC4 [staurosporine]
Assay: log2 fold change of pooled soluble protein (PISA), ligand vs vehicle (log2 ratio); higher = more thermally stabilized
Conditions: ligand concentration: 20 uM; assay format: PISA pool 52.9/55.5/58.6 C

| Target | log2 fold change of pooled soluble protein |
| --- | --- |
| UniProt Q925I1 | 0.0815 |
| UniProt Q91XE0 | 0.0418 |
| UniProt Q91Y47 | 0.144 |
| UniProt Q8VCM8 | -0.235 |
| UniProt Q925N0 | 0.463 |
| UniProt Q8VDI9 | 0.2 |
| UniProt Q91W64 | -0.0392 |
| UniProt Q91YR7 | -0.121 |
| UniProt Q922B2 | -0.0517 |
| UniProt Q91WS0 | -0.229 |
| UniProt Q924T2 | -0.332 |
| UniProt Q91YD9 | -0.13 |
| UniProt Q8VED2 | 0.431 |
| UniProt Q91V12 | -0.0134 |
| UniProt Q922Y1 | -0.0469 |
| UniProt Q91VN4 | 0.116 |
| UniProt Q91XQ0 | 0.307 |
| UniProt Q91W34 | -0.00634 |
| UniProt Q99J47 | 0.0765 |

| Target | log2 fold change of pooled soluble protein |
| --- | --- |
| UniProt Q91X58 | -0.108 |
| UniProt Q924A2 | -0.0527 |
| UniProt Q8VDQ8 | -0.0831 |
| UniProt Q8VDP4 | -0.212 |
| UniProt Q91WC0 | -0.0145 |
| UniProt Q922K7 | 0.0128 |
| UniProt Q99J36 | -0.0971 |
| UniProt Q91VJ5 | 0.0511 |
| UniProt Q99J08 | 0.0544 |
| UniProt Q8VE70 | 0.122 |
| UniProt Q920A5 | -0.0768 |
| UniProt Q91ZP6 | 0.204 |
| UniProt Q8VE88 | 0.00516 |
| UniProt Q91YP0 | -0.0588 |
| UniProt Q8VDM6 | -0.0974 |
| UniProt Q923B1 | -0.38 |
| UniProt Q8VCU1 | -0.0556 |
| UniProt Q91WJ8 | -0.133 |
| UniProt Q91VW5 | 0.0922 |

Looked up one by one from the list above:

| Target | log2 fold change of pooled soluble protein |
| --- | --- |
| UniProt Q99J08 | 0.0544 |
| UniProt Q922K7 | 0.0128 |
